Assay results reported in paper PMC5945587.
Results are given in words; binding and its absence hold for the method and conditions named. Binding seen in cells or lysates may run through a third protein.

By UniProt entry, the sequences of proteins in these tests, tags left out.
UniProt Q9UKV8: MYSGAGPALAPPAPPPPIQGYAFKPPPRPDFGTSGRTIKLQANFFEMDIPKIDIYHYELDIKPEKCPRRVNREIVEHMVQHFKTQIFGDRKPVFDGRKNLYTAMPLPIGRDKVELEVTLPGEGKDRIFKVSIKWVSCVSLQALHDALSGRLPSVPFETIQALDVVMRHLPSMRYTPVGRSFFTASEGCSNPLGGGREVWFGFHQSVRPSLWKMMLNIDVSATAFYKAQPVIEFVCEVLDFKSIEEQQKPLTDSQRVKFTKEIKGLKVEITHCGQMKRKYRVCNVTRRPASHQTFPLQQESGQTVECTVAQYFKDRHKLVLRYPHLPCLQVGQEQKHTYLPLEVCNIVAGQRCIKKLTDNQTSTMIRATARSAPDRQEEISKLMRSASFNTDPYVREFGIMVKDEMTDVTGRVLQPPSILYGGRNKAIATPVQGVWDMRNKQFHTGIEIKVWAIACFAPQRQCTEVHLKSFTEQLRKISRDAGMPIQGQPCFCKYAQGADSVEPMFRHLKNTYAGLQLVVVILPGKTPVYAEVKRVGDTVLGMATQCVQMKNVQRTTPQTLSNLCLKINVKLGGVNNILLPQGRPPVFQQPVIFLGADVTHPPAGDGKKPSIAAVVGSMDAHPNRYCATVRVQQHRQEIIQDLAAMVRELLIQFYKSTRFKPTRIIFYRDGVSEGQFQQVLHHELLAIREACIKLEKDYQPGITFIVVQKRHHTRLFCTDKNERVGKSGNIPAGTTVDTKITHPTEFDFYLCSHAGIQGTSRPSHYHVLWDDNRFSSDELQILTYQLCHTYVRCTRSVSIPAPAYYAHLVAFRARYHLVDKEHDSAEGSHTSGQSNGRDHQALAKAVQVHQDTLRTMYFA

Target: Argonaute protein AGO2 (human (endogenous in PC3)) (UniProt Q9UKV8)
Test: co-IP; protein fraction of an AGO2 RNA immunoprecipitation (RIP-Assay Kit for microRNA, MBL): anti-AGO2 antibody or mouse IgG control on protein G magnetic beads, precleared PC3 cell extracts (siControl or siPTBP1, 48 h), 4 °C overnight; eluted by boiling in Laemmli buffer, western blot

binding: no binding
Substance: polypyrimidine tract binding protein 1 (PTBP1) (from UniProt P26599-3 1-557)
